Test results taken from PMC5486644.
Results are given in words; binding and its absence hold for the method and conditions named. In cells and extracts the contact can be indirect. Some binding calls cover weakened binding; strength is not graded here. For part of these data: Where a sequence is shown, tags or fusion partners need not be part of it.

Assays:
[1] = biological target: T1, endogenous PTPIP51 of iPS cell-derived dopaminergic neurons (human (endogenous in iPS cell-derived neurons)) (UniProt Q96TC7); assay: proximity ligation; VAPB-PTPIP51 Duolink assay in fixed iPS cell-derived dopaminergic neurons, NAS control and AST (SNCA triplication)
T1 sequence: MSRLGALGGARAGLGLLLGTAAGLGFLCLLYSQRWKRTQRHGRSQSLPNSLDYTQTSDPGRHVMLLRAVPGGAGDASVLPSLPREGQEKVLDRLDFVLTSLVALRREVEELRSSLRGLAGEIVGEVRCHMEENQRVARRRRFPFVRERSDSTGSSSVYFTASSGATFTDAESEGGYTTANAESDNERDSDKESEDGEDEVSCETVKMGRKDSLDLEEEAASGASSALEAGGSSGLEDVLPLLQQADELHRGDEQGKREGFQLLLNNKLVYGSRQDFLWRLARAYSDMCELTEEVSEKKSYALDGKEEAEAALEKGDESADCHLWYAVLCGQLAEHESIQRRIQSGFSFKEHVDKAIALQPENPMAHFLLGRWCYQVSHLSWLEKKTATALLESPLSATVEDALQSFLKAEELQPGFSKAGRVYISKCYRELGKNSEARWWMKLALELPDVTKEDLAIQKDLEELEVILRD

[2] = biological target: T2, haemagglutinin (HA)-tagged protein tyrosine phosphatase-interacting protein 51 (PTPIP51), transfected in SH-SY5Y cells (human) (UniProt Q96TC7); assay: co-IP; SH-SY5Y cells transfected with PTPIP51-HA and control vector or α-synuclein (wild-type, A53T, A30P); PTPIP51 immunoprecipitated via the HA tag, endogenous VAPB detected by immunoblot; lysis in PBS with 1% Triton X-100
T2 sequence: T1 sequence

[3] = biological target: T3, endogenous PTPIP51 of SH-SY5Y cells (human (endogenous in SH-SY5Y)) (UniProt Q96TC7); assay: proximity ligation; VAPB-PTPIP51 Duolink assay with rabbit VAPB and rat PTPIP51 antibodies in fixed SH-SY5Y cells transfected with EGFP control vector or EGFP-α-synuclein (wild-type, A53T, A30P)
T3 sequence: T1 sequence

With “endogenous VAPB of iPS cell-derived dopaminergic neurons (from UniProt O95292 1-243)” the binding [1] was “binds”.
“endogenous VAPB of SH-SY5Y cells (from UniProt O95292 1-243)” was tested, and the binding [2] was “binds” and the binding [3] was “binds”.
